From PubChem BioAssay AID334 (DTP/NCI, 2004)
The list is a part of this screen's results and no random one: it gathers tests that were run many times, whatever their T/C, doses with no T/C, and many T/C values between a quarter and a half above the control. Further doses and runs are listed elsewhere. T/C: endpoint of the treated group in % of that of the vehicle group. Some doses have a count of surviving animals in place of a T/C: the source files T/C as zero there, which appears to mark a toxic dose or a test without result, not a measured value. Some survivor counts are full or nearly so, which does not show that the dose was tolerated: survival well below the control is almost never listed, so the zero probably covers shortened survival too. Survivors were counted at the toxicity check, usually on the fifth day, unless a day is given; later deaths do not show. Schedules are NCI's codes, taken here to give the interval after Q, in days (D) or hours (H), and the number of doses after X. Some entries were tested several times; their values stand side by side, smallest first. For survival time, this PubChem deposit counts one and a half times the control or more as active, and values a quarter to a half above the control carry no call in these data; other NCI protocols may use other cut-offs. Some T/C values are followed by the survivors on the day toxicity was checked, most often the fifth; without a count, all were alive then.

Tested on: CD2F1 mice, intracerebral P388 leukemia, median survival T/C%
Experiment: NCI In Vivo Anticancer Drug Screen. Data for tumor model P388 Leukemia (intracerebral) in CD2F1 (CDF1) mice
Conditions: T/C endpoint: median survival time, higher T/C = longer survival
Method: The antitumor activity of compounds was measured in mice bearing transplantable tumors. Survival or tumor size were measured and the results are expressed as the measurement made in the treated group (T) divided by the measurement made in the vehicle treated control group (C). The tumor model used in this assay is P388 Leukemia (intracerebral) in CD2F1 (CDF1) mice

[1] = dose: 100.0 mg/kg/injection, schedule: Q01DX009 (ip), vehicle: saline with Tween-80
[2] = dose: 32.0 mg/kg/injection, schedule: Q01DX009 (ip), vehicle: saline

Compound: CCCCCCCCCCCCCCCCCC(=O)NC(Cc1ccc(N(CCCl)CCCl)cc1)C(=O)O (configuration not stated)
- T/C (dose: 7.5 mg/kg/injection, schedule: Q03HX008 (ip), vehicle: saline): 126 % of control
- T/C (dose: 15.0 mg/kg/injection, schedule: Q03HX008 (ip), vehicle: saline): 136 % of control [9 of 10 alive]
- survivor count (dose: 30.0 mg/kg/injection, schedule: Q03HX008 (ip), vehicle: saline): 8 of 10
- survivor count (dose: 60.0 mg/kg/injection, schedule: Q03HX008 (ip), vehicle: saline): 0 of 10

Compound: COc1cc(NC(=O)CN(CCCl)CCCl)cc(OC)c1OC
- T/C [1]: 128 % of control
- survivor count (dose: 200.0 mg/kg/injection, schedule: Q01DX009 (ip), vehicle: saline with Tween-80): 4 of 6

Compound: CCCCCCCC/C=C/CCCCCCCC(=O)Nc1ccn(C2OC(CO)C(O)C2O)c(=O)n1 (configuration not stated)
- survivor count (dose: 100.0 mg/kg/injection, schedule: Q01DX009 (ip), vehicle: saline): 9 of 10
- survivor count (dose: 200.0 mg/kg/injection, schedule: Q01DX009 (ip), vehicle: saline): 4 of 10

Compound: Nc1ccc2nc3ccc(N)cc3[n+](-c3ccccc3)c2c1
- survivor count (dose: 16.0 mg/kg/injection, schedule: Q01DX009 (ip), vehicle: saline): 4 of 6
- survivor count [2]: 2 of 6

Compound: CC(C)(C)N1CC1CNC(=O)C(=O)NCC1CN1C(C)(C)C (configuration not stated)
- T/C (dose: 12.0 mg/kg/injection, schedule: Q01DX009 (ip), vehicle: saline with Tween-80): 146 % of control
- T/C (dose: 12.5 mg/kg/injection, schedule: Q01DX009 (ip), vehicle: saline with Tween-80): 139 % of control
- survivor count (dose: 25.0 mg/kg/injection, schedule: Q01DX009 (ip), vehicle: saline with Tween-80): 10 of 10
- survivor count (dose: 50.0 mg/kg/injection, schedule: Q01DX009 (ip), vehicle: saline with Tween-80): 7 of 10 and 9 of 10
- survivor count [1]: 0 of 10

Compound: C#C[C@]1(O)CC[C@H]2[C@@H]3CCc4cc(O)ccc4[C@H]3CC[C@@]21C
- survivor count (dose: 8.0 mg/kg/injection, schedule: Q01DX009 (ip), vehicle: saline with Tween-80): 6 of 6
- T/C (dose: 128.0 mg/kg/injection, schedule: Q01DX009 (ip), vehicle: saline with Tween-80): 132 % of control
- T/C (dose: 256.0 mg/kg/injection, schedule: Q01DX009 (ip), vehicle: saline with Tween-80): 130 % of control [5 of 6 alive]

Compound: COc1ccc2c(c1OC(C)=O)-c1cc(OC(C)=O)cc3c1C(C2)N(C(=O)CN(CCCl)CCCl)CC3 (configuration not stated)
- T/C (dose: 0.75 mg/kg/injection, schedule: Q01DX009 (ip), vehicle: DMSO): 146 % of control
- survivor count (dose: 12.5 mg/kg/injection, schedule: Q01DX009 (ip), vehicle: DMSO): 10 of 10
- survivor count (dose: 25.0 mg/kg/injection, schedule: Q01DX009 (ip), vehicle: DMSO): 10 of 10
- survivor count (dose: 50.0 mg/kg/injection, schedule: Q01DX009 (ip), vehicle: DMSO): 3 of 10
- survivor count (dose: 100.0 mg/kg/injection, schedule: Q01DX009 (ip), vehicle: DMSO): 2 of 10
- survivor count (dose: 200.0 mg/kg/injection, schedule: Q01DX009 (ip), vehicle: DMSO): 0 of 10

Compound: O=C1c2ccccc2C(=O)c2c(NCCNCCO)ccc(NCCNCCO)c21
- survivor count [2]: 6 of 6
- survivor count (dose: 64.0 mg/kg/injection, schedule: Q01DX005 (ip), vehicle: saline with Tween-80): 4 of 6
- survivor count (dose: 64.0 mg/kg/injection, schedule: Q01DX009 (ip), vehicle: saline with Tween-80): 5 of 6
